For at least one entry, the source does not settle the construct or the ends of the probe. Whether high values mean tight binding is not given here for every scale. Protein sequences can lack the tags named with them.
Biological target: T1, LrpA1 (Halobacterium salinarum R1) (UniProt B0R4X4)
T1 sequence (looked up): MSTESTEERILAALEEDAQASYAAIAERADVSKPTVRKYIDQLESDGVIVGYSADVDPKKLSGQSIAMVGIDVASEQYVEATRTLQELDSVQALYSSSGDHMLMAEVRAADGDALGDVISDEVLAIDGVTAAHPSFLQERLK
Assay: DNA-affinity chromatography (pull-down), SDS-PAGE densitometry
Conditions: no amino acid (aspartate experiment); CFE buffer: 3 M KCl, 1 M NaCl, 5 mM MgCl2, 10 mM HEPES pH 7.1; room temperature, 4 h; 2 nmol LrpA1, 61 pmol biotinylated DNA; elution with 1% SDS; recombinant protein; residues 1-142; protein details: C-terminal His6 (pET26b, NdeI/XhoI); label: biotin (reverse primer), on streptavidin sepharose; probe letters rebuilt from the primers and the genome

Sequence: ATCGCGCTTGAACGTCTGCATACGTCCGCTACGCACCAGGCGCGCAAAACTTCAGGGGGTTCGGGACCCGCGGGTTGTGCCGTGATAGCACACGCGTCCCGCAGGAACGATTATGAGGGATGGCCGCGATCCTGCTGGCATGCCTTCGGAGCGCGCGGCTGCGGTCACGCCGTTCGCCGCGATGGATGTCCTCGAACGCGCCGCCGAC (double strand) [aspB3-Pincl]
- binding signal (% of aspB3-Pincl + 5 mM Asp): 34
